# Results published in the supplement of paper PMC8728848.
# Some of the results follow.
# B1: HopZSSI-T (Helicobacter pylori), B5Z6D0 (protein)
# chain: MGSSHHHHHHSSGLVPRGSHMENLYFQGEDNGFFISAGYQIGEAAQMVKNTGELKKLSDTYENLSNLLTNFNNLNQAVTNASSPSEINAAIDNLKANTQGLTGEKTNSPAYQAVYLALNAAVGLWNVIAYNVQCGPGNSSQQSVTFEGQPGHNSSSINCNLTGYNNGVSGPLSIDNFKQLNQAYQVLQQALKQGVPVLNNTNQKIEVKVTTQTNGQSSKETTTTTTTNDAQTLLQEASKMIDVLTTNCPWVNHNPGQNGGAPWGLIRQECVSGFATEFSAVTSMIKNAQEIVTQAQSLNANQNNQNAPQDFNPYTSADRAFAQNMLNHAQAQAKILELADQMKKDLNTIPSQFITNYLAACRIDGTTPSQGVTNNTWGAGCAYVEETITALNNSLAHFGTQAEQIKQSELLARTILDFRGSLSTLNSTYNSITTTASNTPNSPFLKNLISQSTNPNNPGGLQAVYQVNQSAYSQLLSATQELGHNPFRRIGLISSQT
# Columns and labels:
# Assay in all cases: glycan array binding signal (z-score within array); higher = stronger binding
# Settings in all cases: glycan notation: IUPAC condensed, linker removed
# [1] = biological target: Gal(b1-4)GlcNAc(b1-2)Man(a1-6)[Man(a1-3)]Man(b1-4)GlcNAc(b1-4)GlcNAc
# Summary of the method: (§1)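 Glycan array binding is given as a within-array Z-score, which can be read as non-binding when negative. The arrays, 3228 of them, came from the Consortium for Functional Glycomics database and were retained only where the protein sequence was available. Z-scores were averaged across arrays of the same protein sequence at different concentrations or buffers and across linkers.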
# [2] = biological target: Gal(b1-4)GlcNAc(b1-2)[Gal(b1-4)GlcNAc(b1-4)]Man(a1-3)[Gal(b1-4)GlcNAc(b1-2)Man(a1-6)]Man(b1-4)GlcNAc(b1-4)GlcNAc
# Summary of the method: as §1
# [3] = biological target: Gal(b1-4)GlcNAc(b1-2)[Gal(b1-4)GlcNAc(b1-4)]Man(a1-3)[Gal(b1-4)GlcNAc(b1-2)[Gal(b1-4)GlcNAc(b1-6)]Man(a1-6)]Man(b1-4)GlcNAc(b1-4)GlcNAc
# Summary of the method: as §1
# [4] = biological target: Gal(b1-4)GlcNAc(b1-2)[Gal(b1-4)GlcNAc(b1-4)]Man(a1-3)[GlcNAc(b1-4)][Gal(b1-4)GlcNAc(b1-2)Man(a1-6)]Man(b1-4)GlcNAc(b1-4)GlcNAc
# Summary of the method: as §1
# [5] = biological target: Gal(b1-4)GlcNAc(b1-2)[Gal(b1-4)GlcNAc(b1-4)]Man(a1-3)[GlcNAc(b1-4)][Gal(b1-4)GlcNAc(b1-2)[Gal(b1-4)GlcNAc(b1-6)]Man(a1-6)]Man(b1-4)GlcNAc(b1-4)GlcNAc
# Summary of the method: as §1
# [6] = biological target: Gal(b1-4)GlcNAc(b1-2)[Gal(b1-4)GlcNAc(b1-6)]Man(a1-6)[Gal(b1-4)GlcNAc(b1-2)Man(a1-3)]Man(b1-4)GlcNAc(b1-4)GlcNAc
# Summary of the method: as §1
# [7] = biological target: Gal(b1-4)GlcNAc(b1-2)[Gal(b1-4)GlcNAc(b1-6)]Man(a1-6)[Gal(b1-4)GlcNAc(b1-2)Man(a1-3)]Man(b1-4)GlcNAc(b1-4)[Fuc(a1-6)]GlcNAc
# Summary of the method: as §1
# [8] = biological target: Gal(b1-4)GlcNAc(b1-2)[Gal(b1-4)GlcNAc(b1-6)]Man(a1-6)[GlcNAc(b1-4)][Gal(b1-4)GlcNAc(b1-2)Man(a1-3)]Man(b1-4)GlcNAc(b1-4)GlcNAc
# Summary of the method: as §1
# [9] = biological target: Gal(b1-4)GlcNAc(b1-2)[Gal(b1-4)GlcNAc(b1-6)]Man(a1-6)[GlcNAc(b1-4)][Gal(b1-4)GlcNAc(b1-2)[Gal(b1-4)GlcNAc(b1-4)]Man(a1-3)]Man(b1-4)GlcNAc(b1-4)[Fuc(a1-6)]GlcNAc
# Summary of the method: as §1
# [10] = biological target: Gal(b1-4)GlcNAc(b1-3)Gal(b1-3)GalNAc
# Summary of the method: as §1
# [11] = biological target: Gal(b1-4)GlcNAc(b1-3)Gal(b1-3)GlcNAc
# Summary of the method: as §1
# [12] = biological target: Gal(b1-4)GlcNAc(b1-3)Gal(b1-4)Glc
# Summary of the method: as §1
# [13] = biological target: Gal(b1-4)GlcNAc(b1-3)Gal(b1-4)GlcNAc
# Summary of the method: as §1
# [14] = biological target: Gal(b1-4)GlcNAc(b1-3)Gal(b1-4)GlcNAc(b1-2)Man(a1-3)[Gal(b1-4)GlcNAc(b1-3)Gal(b1-4)GlcNAc(b1-2)Man(a1-6)]Man(b1-4)GlcNAc(b1-4)GlcNAc
# Summary of the method: as §1
# [15] = biological target: Gal(b1-4)GlcNAc(b1-3)Gal(b1-4)GlcNAc(b1-2)Man(a1-3)[Gal(b1-4)GlcNAc(b1-3)Gal(b1-4)GlcNAc(b1-2)Man(a1-6)]Man(b1-4)GlcNAc(b1-4)[Fuc(a1-6)]GlcNAc
# Summary of the method: as §1
# [16] = biological target: Gal(b1-4)GlcNAc(b1-3)Gal(b1-4)GlcNAc(b1-2)[Gal(b1-4)GlcNAc(b1-3)Gal(b1-4)GlcNAc(b1-6)]Man(a1-6)[Gal(b1-4)GlcNAc(b1-3)Gal(b1-4)GlcNAc(b1-2)Man(a1-3)]Man(b1-4)GlcNAc(b1-4)GlcNAc
# Summary of the method: as §1
# [17] = biological target: Gal(b1-4)GlcNAc(b1-3)Gal(b1-4)GlcNAc(b1-2)[Gal(b1-4)GlcNAc(b1-3)Gal(b1-4)GlcNAc(b1-6)]Man(a1-6)[Gal(b1-4)GlcNAc(b1-3)Gal(b1-4)GlcNAc(b1-2)Man(a1-3)]Man(b1-4)GlcNAc(b1-4)[Fuc(a1-6)]GlcNAc
# Summary of the method: as §1
# [18] = biological target: Gal(b1-4)GlcNAc(b1-3)Gal(b1-4)GlcNAc(b1-3)Gal(b1-4)GlcNAc
# Summary of the method: as §1
binder,measurement,setting,value
B1,glycan array binding signal (z-score),[1],-0.803
same,glycan array binding signal (z-score),[2],-0.209
same,glycan array binding signal (z-score),[3],-0.906
same,glycan array binding signal (z-score),[4],0.227
same,glycan array binding signal (z-score),[5],-0.23
same,glycan array binding signal (z-score),[6],-0.279
same,glycan array binding signal (z-score),[7],-0.065
same,glycan array binding signal (z-score),[8],-0.374
same,glycan array binding signal (z-score),[9],0.577
same,glycan array binding signal (z-score),[10],0.283
same,glycan array binding signal (z-score),[11],0.233
same,glycan array binding signal (z-score),[12],-0.373
same,glycan array binding signal (z-score),[13],-0.343
same,glycan array binding signal (z-score),[14],0.655
same,glycan array binding signal (z-score),[15],-0.305
same,glycan array binding signal (z-score),[16],-0.035
same,glycan array binding signal (z-score),[17],0.605
same,glycan array binding signal (z-score),[18],0.651

# Two entries from above in a different format.
binder	measurement	setting	value
B1	glycan array binding signal (z-score)	[13]	-0.343
same	glycan array binding signal (z-score)	[14]	0.655
